Test results reported in PubChem BioAssay AID256 (DTP/NCI, 2004).
The list does not hold the whole screen: it gathers some chemical classes. Not every dose and run of a compound is shown. T/C: endpoint of the treated group in % of that of the vehicle group. Some entries give survivors of the animals treated and no T/C: the source holds a T/C of zero for them, seemingly a mark for toxic or unscored doses. Some survivor counts are full or nearly so, which does not show that the dose was tolerated: survival well below the control is almost never listed, so the zero probably covers shortened survival too. Counts of survivors are from the toxicity check (mostly the fifth day) where no day follows; animals may have died later. Schedule codes are those of the source, read here as Q, the interval in days (D) or hours (H), X, the number of doses. Some entries were tested several times; the results are listed from low to high. Where survival is the endpoint, this PubChem deposit counts one and a half times the control or more as active, and values a quarter to a half above the control carry no call in these data; other NCI protocols may use other cut-offs. Some T/C values are followed by the survivors on the day toxicity was checked, most often the fifth; where neither a count nor a note follows, no animal had died by that day. Some T/C values are marked as having no survivor count here; that says nothing about deaths at the dose.

System: CD2F1 mice, L1210 leukemia ip, survival T/C
Test: NCI In Vivo Anticancer Drug Screen. Data for tumor model L1210 Leukemia (intraperitoneal) in CD2F1 (CDF1) mice
Conditions: T/C endpoint: mean survival time, higher T/C = longer survival
How it was run: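 Ratio T/C, where T is the treated-group value and C the vehicle-dosed control value, from mice implanted with a transplantable tumor.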

[1] = dose: 62.5 mg/kg/injection, schedule: Q01DX001 (ip), vehicle: distilled water + Tween-80

## NCCOC(=O)N(CCCl)CCCl
dose: 50.0 mg/kg/injection, schedule: Q01DX009 (ip), vehicle: Klucel (hydroxypropylcellulose) (HPC)
  T/C: 102 % of control
dose: 100.0 mg/kg/injection, schedule: Q01DX009 (ip), vehicle: Klucel (hydroxypropylcellulose) (HPC)
  T/C: 97 % of control
dose: 200.0 mg/kg/injection, schedule: Q01DX009 (ip), vehicle: Klucel (hydroxypropylcellulose) (HPC)
  T/C: 100 % of control

## Nc1ccc(N(CCCl)CCCl)cc1
dose: 0.06 mg/kg/injection, schedule: Q01DX009 (ip), vehicle: Klucel (hydroxypropylcellulose) (HPC)
  T/C: 97 % of control
dose: 0.13 mg/kg/injection, schedule: Q01DX009 (ip), vehicle: Klucel (hydroxypropylcellulose) (HPC)
  T/C: 97 % of control
dose: 0.25 mg/kg/injection, schedule: Q01DX009 (ip), vehicle: Klucel (hydroxypropylcellulose) (HPC)
  T/C: 106 % of control [5 of 6 alive]
dose: 0.5 mg/kg/injection, schedule: Q01DX009 (ip), vehicle: Klucel (hydroxypropylcellulose) (HPC)
  T/C: 101, 108, 114 % of control
dose: 1.0 mg/kg/injection, schedule: Q01DX009 (ip), vehicle: Klucel (hydroxypropylcellulose) (HPC)
  T/C: 103, 106 [5 of 6 alive], 111 % of control
dose: 2.0 mg/kg/injection, schedule: Q01DX009 (ip), vehicle: Klucel (hydroxypropylcellulose) (HPC)
  T/C: 114, 115 [5 of 6 alive], 129 % of control
dose: 4.0 mg/kg/injection, schedule: Q01DX009 (ip), vehicle: Klucel (hydroxypropylcellulose) (HPC)
  T/C: 125 and 131 % of control
dose: 8.0 mg/kg/injection, schedule: Q01DX009 (ip), vehicle: Klucel (hydroxypropylcellulose) (HPC)
  survivor count: 5 of 6 and 6 of 6

## CC1(C)CN1P(=O)(Nc1ccccn1)N1CC1(C)C (stereo unspecified)
dose: 25.0 mg/kg/injection, schedule: Q01DX009 (ip), vehicle: saline with Tween-80
  T/C: 98 % of control
dose: 50.0 mg/kg/injection, schedule: Q01DX009 (ip), vehicle: saline with Tween-80
  T/C: 102 % of control
dose: 88.0 mg/kg/injection, schedule: Q01DX009 (ip), vehicle: saline with Tween-80
  T/C: 124 % of control
dose: 100.0 mg/kg/injection, schedule: Q01DX001 (ip), vehicle: carboxymethylcellulose (CMC)
  T/C: 113 % of control
dose: 100.0 mg/kg/injection, schedule: Q01DX009 (ip), vehicle: saline with Tween-80
  T/C: 119 % of control
dose: 132.0 mg/kg/injection, schedule: Q01DX009 (ip), vehicle: saline with Tween-80
  T/C: 137 % of control
dose: 200.0 mg/kg/injection, schedule: Q01DX001 (ip), vehicle: carboxymethylcellulose (CMC)
  T/C: 119 % of control
dose: 200.0 mg/kg/injection, schedule: Q01DX009 (ip), vehicle: saline with Tween-80
  T/C: 154 and 165 % of control
dose: 300.0 mg/kg/injection, schedule: Q01DX009 (ip), vehicle: saline with Tween-80
  T/C: 224 % of control [5 of 6 alive]
dose: 400.0 mg/kg/injection, schedule: Q01DX001 (ip), vehicle: carboxymethylcellulose (CMC)
  T/C: 122 % of control

## Cc1c([N+](=O)[O-])c(C)c(S(=O)(=O)c2c(C)c([N+](=O)[O-])c(C)c([N+](=O)[O-])c2C)c(C)c1[N+](=O)[O-]
dose: 100.0 mg/kg/injection, schedule: Q04DX003 (ip), vehicle: saline with Tween-80
  T/C: 93 % of control
dose: 200.0 mg/kg/injection, schedule: Q04DX003 (ip), vehicle: saline with Tween-80
  T/C: 102 % of control
dose: 400.0 mg/kg/injection, schedule: Q04DX003 (ip), vehicle: saline with Tween-80
  T/C: 95 % of control

## O=[N+]([O-])/N=C1\NN=CCC1N[N+](=O)[O-] (stereo unspecified)
dose: 100.0 mg/kg/injection, schedule: Q01DX001 (ip), vehicle: saline
  T/C: 97 % of control [survivor count not shown]
dose: 200.0 mg/kg/injection, schedule: Q01DX001 (ip), vehicle: saline
  T/C: 100 % of control [survivor count not shown]
dose: 400.0 mg/kg/injection, schedule: Q01DX001 (ip), vehicle: saline
  T/C: 96 % of control [survivor count not shown]

## CC1(C)COP(=O)(N(CCCl)CCCl)OC1
dose: 62.5 mg/kg/injection, schedule: Q01DX001 (ip), vehicle: other
  T/C: 97 % of control
dose: 125.0 mg/kg/injection, schedule: Q01DX001 (ip), vehicle: other
  T/C: 87 % of control
dose: 250.0 mg/kg/injection, schedule: Q01DX001 (ip), vehicle: other
  T/C: 103 % of control
dose: 500.0 mg/kg/injection, schedule: Q01DX001 (ip), vehicle: other
  survivor count: 2 of 6

## COC(=O)c1ccccc1C[N+](C)(CCCl)CCCl
dose: 3.0 mg/kg/injection, schedule: Q01DX009 (ip), vehicle: saline sonified
  T/C: 106 % of control
dose: 4.35 mg/kg/injection, schedule: Q01DX009 (ip), vehicle: saline
  T/C: 125 % of control
dose: 4.4 mg/kg/injection, schedule: Q01DX009 (ip), vehicle: saline sonified
  T/C: 104 % of control
dose: 6.6 mg/kg/injection, schedule: Q01DX009 (ip), vehicle: saline sonified
  T/C: 106 % of control
dose: 15.0 mg/kg/injection, schedule: Q01DX009 (ip), vehicle: saline sonified
  T/C: 107 % of control

## ClCC[N+]1(CCCl)CCCO1
dose: 33.0 mg/kg/injection, schedule: Q04DX003 (ip), vehicle: saline
  T/C: 131 % of control
dose: 50.0 mg/kg/injection, schedule: Q04DX003 (ip), vehicle: saline
  T/C: 118 % of control
dose: 75.0 mg/kg/injection, schedule: Q04DX003 (ip), vehicle: saline
  T/C: 98 % of control

## NNc1nc(NN)nc(NN)n1
dose: 100.0 mg/kg/injection, schedule: Q04DX003 (ip), vehicle: Klucel (hydroxypropylcellulose) (HPC)
  T/C: 92 % of control
dose: 200.0 mg/kg/injection, schedule: Q04DX003 (ip), vehicle: Klucel (hydroxypropylcellulose) (HPC)
  survivor count: 3 of 3
dose: 400.0 mg/kg/injection, schedule: Q04DX003 (ip), vehicle: Klucel (hydroxypropylcellulose) (HPC)
  survivor count: 3 of 3

## CCC(CO)NC(C)C.O=[N+]([O-])c1cc([N+](=O)[O-])c(O)c([N+](=O)[O-])c1
dose: 75.0 mg/kg/injection, schedule: Q01DX001 (ip), vehicle: saline
  T/C: 92 % of control [survivor count not shown]
dose: 150.0 mg/kg/injection, schedule: Q01DX001 (ip), vehicle: saline
  T/C: 95 % of control [survivor count not shown]

## Cc1ccc(NP(=O)(Cl)N(CCCl)CCCl)cc1 (stereo unspecified)
dose: 7.8 mg/kg/injection, schedule: Q01DX001 (ip), vehicle: distilled water + Tween-80
  T/C: 103 % of control
dose: 15.6 mg/kg/injection, schedule: Q01DX001 (ip), vehicle: distilled water + Tween-80
  T/C: 107 % of control
dose: 31.3 mg/kg/injection, schedule: Q01DX001 (ip), vehicle: distilled water + Tween-80
  T/C: 108 % of control
[1]
  T/C: 108 % of control
  survivor count: 6 of 6
dose: 125.0 mg/kg/injection, schedule: Q01DX001 (ip), vehicle: distilled water + Tween-80
  T/C: 96 and 107 % of control
dose: 250.0 mg/kg/injection, schedule: Q01DX001 (ip), vehicle: distilled water + Tween-80
  survivor count: 6 of 6
dose: 500.0 mg/kg/injection, schedule: Q01DX001 (ip), vehicle: distilled water + Tween-80
  survivor count: 6 of 6

## CCOC(=O)C1CCOP(=O)(N(CCCl)CCCl)N1 (stereo unspecified)
dose: 62.5 mg/kg/injection, schedule: Q01DX001 (ip), vehicle: water
  T/C: 108 % of control
dose: 125.0 mg/kg/injection, schedule: Q01DX001 (ip), vehicle: water
  T/C: 114 % of control
dose: 222.0 mg/kg/injection, schedule: Q01DX001 (ip), vehicle: water
  T/C: 111 % of control
dose: 250.0 mg/kg/injection, schedule: Q01DX001 (ip), vehicle: water
  T/C: 114 % of control
dose: 333.0 mg/kg/injection, schedule: Q01DX001 (ip), vehicle: water
  T/C: 111 % of control
dose: 500.0 mg/kg/injection, schedule: Q01DX001 (ip), vehicle: water
  T/C: 110 and 130 % of control

## C1CN1.NC(=O)CC(N)C(=O)O (stereo unspecified)
dose: 100.0 mg/kg/injection, schedule: Q04DX003 (ip), vehicle: saline
  T/C: 112 % of control [5 of 6 alive]
dose: 200.0 mg/kg/injection, schedule: Q04DX003 (ip), vehicle: saline
  T/C: 112 % of control
dose: 400.0 mg/kg/injection, schedule: Q04DX003 (ip), vehicle: saline
  survivor count: 0 of 6
